According to article PMC5307357:
Results are given in words; binding and its absence hold for the method and conditions named.

Chains of the proteins cited; added tags and fusions are not shown.
UniProt Q9FRL8: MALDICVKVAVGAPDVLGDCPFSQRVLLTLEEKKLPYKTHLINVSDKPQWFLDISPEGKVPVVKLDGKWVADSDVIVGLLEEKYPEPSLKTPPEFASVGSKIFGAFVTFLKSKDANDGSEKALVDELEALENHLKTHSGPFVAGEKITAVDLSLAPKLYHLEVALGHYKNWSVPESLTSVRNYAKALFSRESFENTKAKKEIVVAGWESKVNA

Biological target: Arabidopsis thaliana dehydroascorbate reductase 2 (Arabidopsis thaliana) (UniProt Q9FRL8)
Test: crystal structure; glutathionylated AtDHAR2 at 20 mg/mL, hanging drop vapor diffusion, 2 M ammonium sulfate, 0.1 M sodium acetate pH 4.8, 20 °C; 2.3 Å, space group P21221; both purified

binding: no binding
Substance: Arabidopsis thaliana dehydroascorbate reductase 2 (from UniProt Q9FRL8 1-213) (enzyme)
